# Measurements reported in PubChem BioAssay AID504602 (National Center for Advancing Translational Sciences (NCATS), 2011).
# The shares of active, inactive and inconclusive entries below differ from those in the screen. Potencies of inconclusive entries are doubtful fits and often do not repeat. Active and inactive are the calls of the source. Calls follow the shape of the dose curve; as a rule, active = well fitted curve in the direction sought with a large enough effect; inconclusive = small, poorly fitted or top-dose-only effect, or effect the other way, or another doubt; inactive = no such curve, though single readings can be large or run the other way.
# Assay: Quantitative high throughput screen to test cell viability of anti-malarial compounds targeting the delayed death phenotype
# Conditions: HepG2 viability, CellTiter-Glo luminescence, 48 h; series mostly up to 46.1 µM
# Excerpt: The biochemical processes that make this organelle essential for erythrocytic stage parasites are not well understood. However, antibiotics, such as azithromycin and tetracycline, which target the apicoplast translational machinery, have a potent antimalarial effect. […] We have developed a cell-based assay that measures parasite growth based on the expression of an integrated copy of a firefly luciferase reporter. To detect small molecules that cause this 'delayed death' phenotype, erythrocytes infected with the luciferase-expressing parasites were incubated with compounds for either one or two generations, corresponding to 48 and 96 hours, respectively. Compounds that inhibit parasite growth in the second generation, but not the first, should be enriched in antimalarials that target the apicoplast. Growth inhibition is detected by a decrease in luciferase activity. The goal of this counterscreen is to measure the cytoxoxicity (against HepG2 cell line) of a set of anti-malarial compounds that target the delayed death pheonotype as identified by the qHTS assay that inhibit the development of the apicoplast in the malarial parasite Plasmodium falciparum. NIH Molecular Libraries Probe Production Network [MLPCN] NIH Chemical Genomics Center [NCGC] MLPCN Grant: R21 NS059500 Assay Provider: David Fidock and Eric Ekland, Columbia University
# Cells were plated at a density of 2000 cells/well/5uL in 1536 well white tissue culture plate with culture medium. Triplicate plates were prepared. Plates were incubated at 37C, 5% CO2 for 5 hours and then 23nL of compounds and positive control were transferred to the assay plates. Tetraoctylammonium bromide was added as a positive control. Plates were then incubated at 37C, 5% CO2 for 48 hours. 5 uL of CellTitler-Glo buffer was added to each well and then incubated for 30 min at room temperature. Luminescence was measured using ViewLux (1 second, slow, 2X).
row,SMILES,Potency
1,Cc1noc(C)c1NC(=O)Nc1ccc2c(c1)C(=O)N(C(C)C)C[C@@H](C)[C@H](CN(C)S(=O)(=O)c1ccc(F)cc1)OCCCC[C@H](C)O2,"inconclusive: 35.3 µM [inhibitor, single point]"
2,C[C@@H]1CCCCO[C@@H](CN(C)Cc2ccc(F)cc2)[C@H](C)CN([C@@H](C)CO)C(=O)c2cc(NC(=O)Nc3ccccc3)ccc2O1,"inconclusive: 35.3 µM [inhibitor, single point]"
3,C[C@@H]1CCCCO[C@H](CN(C)C(=O)Nc2ccc(F)cc2)[C@H](C)CN([C@@H](C)CO)C(=O)c2cc(NS(=O)(=O)c3ccccc3)ccc2O1,"inconclusive: 35.3 µM [activator, partial curve, poor fit]"
4,COCCOCOC[C@H](C)N1C[C@@H](C)[C@H](CN(C)S(=O)(=O)c2ccc(F)cc2)OCCCC[C@H](C)Oc2ccc(NC(=O)Nc3ccccc3)cc2C1=O,"inconclusive: 8.88 µM [inhibitor, full curve]"
5,C[C@@H]1CN([C@@H](C)CO)C(=O)c2cc(NC(=O)Nc3ccccc3)ccc2O[C@@H](C)C/C=C\CO[C@H]1CN(C)S(=O)(=O)c1ccc(F)cc1,inactive
6,CC(C)N1C[C@@H](C)[C@H](CN(C)S(=O)(=O)c2ccc(F)cc2)OCCCC[C@H](C)Oc2ccc(NC(=O)Nc3ccccc3)cc2C1=O,"inconclusive: 11.2 µM [inhibitor, single point]"
7,COc1ccc(COC[C@H](C)N2C[C@@H](C)[C@H](CN(C)Cc3ccc(OC)cc3)OCCCC[C@H](C)Oc3ccc(NC(=O)Nc4ccccc4)cc3C2=O)cc1,"inconclusive: 35.3 µM [inhibitor, single point]"
8,COCOC[C@H](C)N1C[C@@H](C)[C@H](CN(C)S(=O)(=O)c2ccc(F)cc2)OCCCC[C@H](C)Oc2ccc(NC(=O)Nc3ccccc3)cc2C1=O,active: 7.91 µM
9,C[C@@H]1CN(CCO[Si](C)(C)C(C)(C)C)C(=O)c2cc(NC(=O)Nc3ccccc3)ccc2O[C@@H](C)CCCCO[C@H]1CN(C)S(=O)(=O)c1ccc(F)cc1,inactive

# Shown bar-delimited: part of the list above
row | SMILES | Potency
5 | C[C@@H]1CN([C@@H](C)CO)C(=O)c2cc(NC(=O)Nc3ccccc3)ccc2O[C@@H](C)C/C=C\CO[C@H]1CN(C)S(=O)(=O)c1ccc(F)cc1 | inactive
6 | CC(C)N1C[C@@H](C)[C@H](CN(C)S(=O)(=O)c2ccc(F)cc2)OCCCC[C@H](C)Oc2ccc(NC(=O)Nc3ccccc3)cc2C1=O | inconclusive: 11.2 µM [inhibitor, single point]
